Reference: paper PMC12784972
Results are given in words; binding and its absence hold for the method and conditions named. Binding seen in cells or lysates may run through a third protein.

Sequences of proteins named here, by UniProt entry; tags and fusion partners are left off.
UniProt Q62093: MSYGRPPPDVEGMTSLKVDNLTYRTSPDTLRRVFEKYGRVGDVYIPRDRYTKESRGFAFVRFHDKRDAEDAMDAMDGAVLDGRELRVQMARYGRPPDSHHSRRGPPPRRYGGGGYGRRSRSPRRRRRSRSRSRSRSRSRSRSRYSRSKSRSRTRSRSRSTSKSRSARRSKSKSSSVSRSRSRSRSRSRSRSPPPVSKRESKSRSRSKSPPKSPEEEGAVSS

Biological target: TDP43^ΔNLS (UniProt Q921F2)
Assay: co-IP; transfected cells, 48 h; lysis buffer 50 mM Tris-HCl pH 7.5, 150 mM NaCl, 10% glycerol, 0.5% NP-40; IP with anti-MYC beads 4 h at 4°C; TDP43 and its mutants with SRSF2 (Fig. 8C,D)

binding: no binding
Substance: SRSF2 (SC35), expressed in transfected cells for co-IP (from UniProt Q62093 1-221)
